From patent US8137941B2, “Chondroitin polymerase and DNA encoding the same” (Seikagaku Corporation, priority 2001, dated 2012) come the findings set out here.

The nature of the series: Analysis of influence by temperature on the enzyme reaction. Format: biochemical, shark. As to conditions: 25, 30, 37, 40, 45 or 100° C. examined.

B1: enzyme of the present invention: His-tagged recombinant chondroitin polymerase (SEQ ID NO:2) of Escherichia coli strain K4, expressed from pTrcHisC in E. coli TOP10 (protein, listed as Escherichia coli)
chain: MSILNQAINLYKNKNYRQALSLFEKVAEIYDVSWVEANIKLCQTALNLSEEVDKLNRKAVIDIDAATKIMCSNAKAISLNEVEKNEIISKYREITAKKSERAELKEVEPIPLDWPSDLTLPPLPESTNDYVWAGKRKELDDYPRKQLIIDGLSIVIPTYNRAKILAITLACLCNQKTIYDYEVIVADDGSKENIEEIVREFESLLNIKYVRQKDYGYQLCAVRNLGLRAAKYNYVAILDCDMAPNPLWVQSYMELLAVDDNVALIGPRKYIDTSKHTYLDFLSQKSLINEIPEIITNNQVAGKVEQNKSVDWRIEHFKNTDNLRLCNTPFRFFSGGNVAFAKKWLFRAGWFDEEFTHWGGEDNEFGYRLYREGCYFRSVEGAMAYHQEPPGKENETDRAAGKNITVQLLQQKVPYFYRKKEKIESATLKRVPLVSIYIPAYNCSKYIVRCVESALNQTITDLEVCICDDGSTDDTLRILQEHYANHPRVRFISQKNKGIGSASNTAVRLCRGFYIGQLDSDDFLEPDAVELCLDEFRKDLSLACVYTTNRNIDREGNLISNGYNWPIYSREKLTSAMICHHFRMFTARAWNLTEGFNESISNAVDYDMYLKLSEVGPFKHINKICYNRVLHGENTSIKKLDIQKENHFKVVNESLSRLGIKKYKYSPLTNLNECRKYTWEKIENDL
modifications: His tag
Take B1: the “reaction temperature giving the product having the largest molecular weight” value came to 25 °C and the “reaction temperature of the highest incorporation” value stood at 30 °C.
